Test results published in PubChem BioAssay AID2685 (National Center for Advancing Translational Sciences (NCATS), 2010).
This is one part of the list. These are further read-outs of the screen, such as a control signal, another cell line or another target. No call is given for them. The list favours compounds with an active or inconclusive main result. Potencies come from curve fits of mixed quality, noted in brackets.

Assay: qHTS Assay for Lipid Storage Modulators in Drosophila S3 Cells;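 as to cell number change: cells counted by Cell Tracker Red CMTPX staining in the red channel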
Conditions: BODIPY lipid droplet fluorescence, 18-24 h; for cell number change: measured here: cell count max response, cells fed with added oleic acid
How it was run: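 Laser-scanning cytometry quantifies lipid droplet accumulation (500–530 nm total intensity; droplet/cell object ratio) in oleic acid-fed (400 uM added) Drosophila S3 cells treated with a concentration series. 20 uM Triacsin C defined 100% inhibition.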

[1] = measured here: cell number channel AC50, cells fed with added oleic acid
[2] = measured here: lipid fluorescence (Fed channel) AC50, cells fed with added oleic acid

| SMILES | cell number change | AC50 [1] | AC50 [2] |
| --- | --- | --- | --- |
| CC(=O)c1ccc(S(=O)(=O)NC2CC(=O)N(c3ccc4c(c3)OCCO4)C2)cc1 (stereo unspecified) | 32.3% | 23.1 µM [rising, single point] |  |
| COc1c(/C=N/Nc2nc(N3CCCCC3)nc(N3CCCCC3)n2)cccc1[N+](=O)[O-] | 16% |  | 25.9 µM [rising, single point] |
| Cc1ccc2oc(=O)c3cnn(CC(=O)NCCCOC(C)C)c3c2c1 | 1.6% |  |  |
| Cc1ccc(NC(=O)c2cc(-c3cccs3)on2)cc1 | 36.4% | 25.9 µM [rising, single point] |  |
| N#CCCn1c2ccccc2c2nc3ccccc3nc21 | 6.97% |  | 2.59 µM [rising, partial curve] |
| CSc1ccc(/C=C/C(=O)OCC(=O)N2CCc3ccccc32)cc1 | -37.8% | 2.31 µM [falling, full curve] |  |
| CC(C)(C)OC(=O)N1CCC2(CC1)C(C#N)=C(N)OC1=C2C(=O)CCC1 | -26.7% |  |  |
| CN1C(=O)/C(=C/c2ccco2)SC1=Nc1cccc(C(=O)O)c1 | -22.7% |  | 0.326 µM [falling, full curve] |
| Cc1ccc(C(C)(O)CS(=O)(=O)Cc2ccccc2)cc1 (stereo unspecified) |  |  | 29.1 µM [rising, single point] |
| CC(CC(=O)Nc1ccc(Cl)c(S(=O)(=O)N2CCOCC2)c1)c1ccccc1 (stereo unspecified) | 100% | 7.31 µM [rising, partial curve] |  |
| O=c1cc(-c2ccc(O)cc2)oc2c(C3O[C@H](CO)[C@@H](O)[C@H](O)[C@H]3O)c(O)cc(O)c12 (stereo partly specified) | -29.3% |  | 7.31 µM [falling, partial curve, poor fit] |
| COCCN(C)C(=O)CC1C(=O)NCCN1CC(c1ccccc1)c1ccccc1 (stereo unspecified) | -1.78% |  | 0.82 µM [falling, full curve, poor fit] |
| CCN1CCN(c2nnc(-c3ccc(F)cc3)c3ccccc23)CC1 | 6.35% |  |  |
| COc1ccc(NS(=O)(=O)c2cc(NC(=O)c3cnccn3)ccc2N2CCCC2)cc1 | 12.3% |  | 3.66 µM [rising, single point] |
| O=C(Cn1c2ccccc2c2nc3n(c(=O)c21)CCCS3)Nc1ccccc1 | -18.8% |  |  |
| CCn1c(=O)cc(NC2=NCC(C)CN2c2cccc(Cl)c2)n(C)c1=O (stereo unspecified) | -0.0858% |  | 8.2 µM [rising, partial curve] |
| Cc1ccc2nc(SCC(=O)c3ccccc3)nc(=O)n2c1 | -15.1% | 2.59 µM [falling, partial curve] | 2.31 µM [falling, partial curve] |
| O=C(CNS(=O)(=O)c1ccccc1)OCC(=O)c1c[nH]c2ccccc12 | -7.94% |  | 4.11 µM [rising, full curve, poor fit] |
| O=C(COC(=O)c1cc([N+](=O)[O-])ccc1Cl)NCCc1ccccc1 | -24.5% |  |  |
| CC1(C)CN=c2s/c(=C\c3ccc(Cl)cc3)c(=O)n2C1 | 33.9% | 23.1 µM [rising, single point] |  |

| SMILES | cell number change | AC50 [1] | AC50 [2] |
| --- | --- | --- | --- |
| COc1ccc(CN(C)C(=O)C23CC4CC(CC(C4)C2)C3)c(OC)c1 | -22.4% | 0.82 µM [falling, full curve, poor fit] | 35.5 µM [falling, single point] |
| CC1(C)C([N+](=O)[O-])C(c2ccc(O)cc2)NC(c2ccc(O)cc2)C1[N+](=O)[O-] (stereo unspecified) | 23.4% |  | 1.84 µM [rising, single point] |
| COc1ccc(N2CCN(C(=O)Cc3ccc(Cl)cc3)CC2)cc1 | -10.6% |  | 29.1 µM [falling, single point] |
| COc1ccc(CNC(=O)c2cc(C3CC3)on2)cc1 |  |  | 3.66 µM [rising, partial curve, poor fit] |
| Cc1ccc(S(=O)(=O)c2c[nH]c3ccc(C)cc3c2=O)cc1 | 20.7% |  | 0.82 µM [rising, full curve, poor fit] |
| O=C(COC(=O)c1cc(S(=O)(=O)N2CCOCC2)ccc1Cl)Nc1ccc2c(c1)OCO2 | 30.9% | 0.291 µM [rising, partial curve, poor fit] | 2.06 µM [rising, partial curve, poor fit] |
| CCCOc1ncnc2c1[nH]c1ccc(C)cc12 | -45.6% | 23.1 µM [falling, single point] | 18.4 µM [falling, single point] |
| Cc1ccc(S(=O)(=O)c2nc(-c3ccc(F)cc3)oc2N2CCOCC2)cc1 | 12.9% |  | 0.366 µM [rising, partial curve, poor fit] |
| COc1cccc(C(c2ccccc2)N2C3CCC2CN(S(=O)(=O)c2ccc(F)cc2)CC3)c1 (stereo unspecified) | -13.5% |  |  |
| O=C(Nc1ccc(C2=NCCN2)cc1)c1ccc(C(=O)Nc2ccc(C3=NCCN3)cc2)c([N+](=O)[O-])c1 | 1.02% |  | 0.259 µM [rising, full curve] |
| O=C(NC(=S)N1CCN(c2ccc([N+](=O)[O-])cc2)CC1)c1ccc(F)cc1 | -31.9% | 29.1 µM [falling, single point] |  |
| CCOC(=O)N1CCC(=NNc2nc(C)cc(=O)[nH]2)CC1 | -27% |  | 16.4 µM [falling, single point] |
| COc1ccc(NS(=O)(=O)c2cccc(C(=O)NCC3(N4CCCCC4)CCCCC3)c2)cc1 | 4.64% |  | 29.1 µM [falling, single point] |
| O=C(CNS(=O)(=O)c1ccc(Br)s1)N1CCCC1 | -190% | 29.1 µM [falling, single point] | 23.1 µM [falling, single point] |
| CCC(C)c1ccccc1NC(=S)Nc1cccnc1 (stereo unspecified) | 21.4% |  |  |
| NS(=O)(=O)c1ccc(CCNC(=O)c2cc(-c3cccs3)nc3ccccc23)cc1 | 38.8% | 29.1 µM [rising, single point] | 29.1 µM [rising, single point] |
| COc1ccccc1CN1CCNC(=O)C1CC(=O)NCc1cn(C)nc1C (stereo unspecified) | -32.9% |  | 29.1 µM [falling, partial curve, poor fit] |
| CCC(C)c1ccc(O)c(/C=N/O)c1 (stereo unspecified) | -39.1% | 4.11 µM [falling, full curve] | 14.6 µM [falling, partial curve] |
| O=S(=O)(Nc1ccc(Br)cn1)c1ccc(Cl)s1 | -10.5% |  | 6.51 µM [rising, single point] |
| COc1cccc(N2CCN(C(=O)CN(c3cc(C)cc(C)c3)S(=O)(=O)c3c(C)noc3C)CC2)c1 | 15% |  | 6.51 µM [rising, single point] |

Some of the entries above in another layout.
SMILES	cell number change	AC50 [1]	AC50 [2]
CCC(C)c1ccc(O)c(/C=N/O)c1 (stereo unspecified)	-39.1%	4.11 µM [falling, full curve]	14.6 µM [falling, partial curve]
O=S(=O)(Nc1ccc(Br)cn1)c1ccc(Cl)s1	-10.5%		6.51 µM [rising, single point]

Remaining list, next part

| SMILES | cell number change | AC50 [1] | AC50 [2] |
| --- | --- | --- | --- |
| Cc1cc(C)n2nc(SCC(=O)N(C)C)nc2n1 | -23.1% | 1.84 µM [falling, full curve, poor fit] | 0.82 µM [falling, partial curve, poor fit] |
| O=C(CCSc1nnc(-c2ccccc2)o1)N1CCOCC1 |  | 6.51 µM [rising, partial curve, poor fit] | 3.66 µM [rising, full curve] |
| c1ccc(Cc2nn3c(C4COc5ccccc5O4)nnc3s2)cc1 (stereo unspecified) |  |  | 0.82 µM [rising, single point] |
| Cc1ccc(C)c(OCc2cc(C(=O)NC3CCOC(C)(C)C3)no2)c1 (stereo unspecified) | -2.48% |  | 11.6 µM [rising, partial curve] |
| COc1ccc(NC(=O)CCc2nnc3ccc(NCc4ccco4)nn23)cc1 | -22.7% |  |  |
| COc1ccc(C(=O)Nc2ccccc2C(=O)N/N=C/c2ccc(O)c(OC)c2)cc1 | -5.8% | 1.84 µM [falling, partial curve] | 2.06 µM [falling, partial curve] |
| COc1ccc(C(=O)OCC(=O)NCC2CCCO2)cc1S(=O)(=O)N1CCCc2ccccc21 (stereo unspecified) | -0.656% |  | 0.0116 µM [falling, full curve] |
| CN(C)C(=O)c1cc([N+](=O)[O-])cc([N+](=O)[O-])c1N(C)C | -2.44% |  | 0.164 µM [rising, partial curve, poor fit] |
| CC(C)c1ccc(NC(=O)COC(=O)C2=COCCO2)cc1 | 2.16% |  | 2.91 µM [falling, partial curve] |
| C[C@@]12CC(=O)NC1N(C(=O)c1cccc(C(F)(F)F)c1)C(c1ccccc1O)C2 (stereo partly specified) | -0.424% | 0.58 µM [falling, single point] |  |
| Cn1c(O)c(/C=C2\C=NN=C2c2ccccc2)sc1=S | -54.7% | 29.1 µM [falling, single point] | 29.1 µM [falling, single point] |
| O=C(O)CCCC(=O)Nc1ccccc1Br | -6.79% |  | 29.1 µM [falling, single point] |
| CCc1c(C)nc2cc(C)[nH]n2c1=O | 7.17% |  | 3.26 µM [falling, single point] |
| COCc1n[nH]c(=S)n1-c1cccc2ccccc12 | 8.01% |  | 0.00461 µM [falling, full curve, poor fit] |
| COc1ccc(/C=C/C(=O)Nc2ccc3c(c2)CCC3)cc1OC | 25.4% |  | 32.6 µM [rising, single point] |
| O=C(CSc1ccccc1)NC1=NCCS1 | 2.41% | 0.0206 µM [falling, full curve, poor fit] |  |
| CCCc1nn(-c2ccccc2)c2c1C(c1cccs1)C(C#N)=C(N)O2 (stereo unspecified) | -8.92% | 0.461 µM [rising, full curve] | 0.58 µM [rising, partial curve] |
| COc1ccc(C(=O)NCC(=O)OCC(=O)NC(=O)c2ccc(C(C)(C)C)cc2)cc1OC | 1.5% |  | 0.651 µM [falling, single point] |
